Out of some 31,000 sequences screened, about 1,400 (4.5%) were called active.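 The calls were made as follows: active = median seed-adjusted z-score above 1 or below -1; inactive = the rest.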 The list shows a part of the results.

In PubChem BioAssay AID1347426 (Functional Genomics Laboratory (NCATS/FGL), 2020) one finds median seed-adjusted z-score data, which are given here for 29 sequences.

The nature of the assay: Novel Modifiers of Survival Motor Neuron (SMN) Protein: Gene Identification via Genome-wide siRNA Screen.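 Also: luminescence tracks full-length SMN protein made from the SMN2 reporter.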 Particulars: HEK293T SMN2-luciferase reporter, siRNA knockdown, 72 h; actives lie on both sides. The gist of the method: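 HEK293T cells stably carrying an SMN2 promoter/splicing cassette–luciferase reporter were reverse-transfected with 1 pmol siRNA per well (druggable-genome library, 3 siRNAs per gene) and grown 72 h at 37 °C. Luminescence, normalized to negative-control siRNA and log10-transformed, was scored as MAD.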
In general terms: In a reporter assay the amount or activity of a reporter protein is the signal.
AGAUUAUGUUCCUGCUGUATT against NMB: the median seed-adjusted z-score was inactive: 0.746.

Regarding CGAGGAGUUUGAGUAUCGATT against CKS1B, the median seed-adjusted z-score was inactive: 0.00314.

For GGAUGCUAUGAAUAAGUUUTT against MOXD1, the median seed-adjusted z-score was inactive: -0.162.

In the case of CCCGGAAUGUGCAGCACUATT against PGLYRP1, the median seed-adjusted z-score was inactive: -0.559.

For the sequence “AGAUAACUGGAAAAUGUCUTT against SLC22A18AS”, the median seed-adjusted z-score is inactive: 0.0382.

Turning to AGAGGCUUAUUUGACUUUATT against DCN, the median seed-adjusted z-score was inactive: 0.326.

Consider GGUGAUGAGAGAUCCCAAUTT against PABPC4, for which the median seed-adjusted z-score was inactive: -0.42.

As for GAGAAUACCUGUUUAGUGUTT against COX7A2L, the median seed-adjusted z-score was inactive: 0.

For CCAUUUCGACUGACACGUUTT against MCHR2, the median seed-adjusted z-score is inactive: -0.658.

In the case of GGCUAGAUGCGGACAUUCATT against EEFSEC, the median seed-adjusted z-score was inactive: -0.000421.

Regarding AGCGGAACCUGAAUCCCAATT against TCF3, the median seed-adjusted z-score is inactive: -0.0126.

Turning to GAAAAUCAGUCAACAAGAUTT against NMUR2, the median seed-adjusted z-score is inactive: 0.529.

For CUUGUAGAGUCGCACCUUATT against SHOX2, the median seed-adjusted z-score is inactive: -0.238.

Turning to GCACUGUAGCUGAUCUAUUTT against CYP2C8, the median seed-adjusted z-score is inactive: 0.371.

In the case of CGAGCACCCUUACAAGUCUTT against RYR1, the median seed-adjusted z-score is inactive: -0.474.

In the case of CCCACAUUCUUGUCCGGCATT against ADAMTS4, the median seed-adjusted z-score was inactive: -0.0153.

Consider CAGAUACACUGACUACGAUTT against PPARGC1B, for which the median seed-adjusted z-score was inactive: -0.366.

For GACAGAUGACUGAUCCUAATT against PSMD13, the median seed-adjusted z-score is inactive: 0.58.

For the sequence GCUCCGAUCCUUCCAUGUATT against HIRA, the median seed-adjusted z-score is inactive: 0.286.

In the case of GCGAUUUAAUAUUAAGGAATT against CHD2, the median seed-adjusted z-score was inactive: 0.422.

Turning to AGUCCGAAGAUGUCCCAUATT against ATP6AP1, the median seed-adjusted z-score is inactive: 0.358.

In the case of CAACAGAUCCUCACCAGUATT against LEP, the median seed-adjusted z-score was inactive: -0.143.

In the case of GCCUAUUUACAACAGCUAATT against ARPC3, the median seed-adjusted z-score is inactive: -0.237.

For CAAGGUGCAUUACCCGAAATT against CES7, the median seed-adjusted z-score is inactive: -0.374.

In the case of ACAUCGUUAUUUUCUAUUATT against FOXD4L1, the median seed-adjusted z-score was inactive: 0.271.

Turning to CCAGAAUAUCUAUAUUCAATT against PKP2, the median seed-adjusted z-score was inactive: -0.0809.

In the case of UGUGGAUCUGCUUACCAAATT against ZFAND2B, the median seed-adjusted z-score is inactive: 0.

Take GAAUCUAUGAGGAAUAUGATT against PTPN9: the median seed-adjusted z-score was inactive: 0.148.

For GAGAUGAACCGGAACAUCATT against LOC650864, the median seed-adjusted z-score was inactive: 0.214.
